The exact form of at least one protein or probe is not confirmed.

For the series, the target named is RpoS (sigma38) (Pseudomonas protegens FD6) (UniProt Q4KHE5). Nature of the series: EMSA. To be noted: EMSA with Beyotime kits GS002/GS009 (binding buffer and temperature not stated); biotin probe 1 uM (legend; Methods say 1 umol); 100-fold unlabeled competitor; recombinant protein; residues 1-335; protein details: C-terminal His-tag (pET22b); label: biotin. Background: Mobility shift assays separate free from complexed probe on a gel.

“AACTATGCTTTGGCGCTCGAAAATG (double strand) [pltL promoter probe]”: the binding result is reported as “binds”.

As for “CCACTAGAACTATTTTTGTATCCAG (double strand) [pltR promoter probe]”, the binding result was “binds”.

Consider “CGCGATTCCATCGGCACTACGATCT (double strand) [pltF promoter probe]”, for which the binding result is listed as “binds”.

Take “CGCTCTCACTAAGTTAAATTCAAAT (double strand) [phlG promoter probe]”: the binding result is on record as “binds”.

On to “TTGCACCGATCTATCTAGTTTTTAA (double strand) [phlA promoter probe]”, for which the binding result is on record as “binds”.

(Values after PMC9793710.)
